Experimental findings from paper PMC7933818 are described below.

Amino acid sequences for entries named in this document (tags omitted).
UniProt Q12905: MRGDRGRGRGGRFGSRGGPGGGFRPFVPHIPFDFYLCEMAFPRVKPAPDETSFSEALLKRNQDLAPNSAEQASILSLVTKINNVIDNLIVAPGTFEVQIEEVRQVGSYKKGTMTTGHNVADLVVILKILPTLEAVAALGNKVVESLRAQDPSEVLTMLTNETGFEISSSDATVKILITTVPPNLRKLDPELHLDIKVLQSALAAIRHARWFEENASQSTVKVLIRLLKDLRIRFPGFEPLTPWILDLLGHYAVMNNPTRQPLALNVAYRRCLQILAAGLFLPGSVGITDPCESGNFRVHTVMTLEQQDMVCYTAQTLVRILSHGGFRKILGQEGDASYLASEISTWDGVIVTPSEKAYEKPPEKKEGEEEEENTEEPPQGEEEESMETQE

These are yes or no findings as the source states them, for the method shown. In cells and extracts the contact can be indirect. Some binding calls cover weakened binding; strength is not graded here.

The test concerns the target NF45 (Jurkat) (human (endogenous in Jurkat)) (UniProt Q12905). Nature of the test: co-IP; Jurkat cells treated with PMA/ionomycin (P/I); RIPA lysate with nuclease, sonicated; antibody and protein A/G agarose overnight at 4°C; washed three times with TBST; Western blot.

B1: NFATc1 (protein, UniProt O95644 1-943)
chain: MPSTSFPVPSKFPLGPAAAVFGRGETLGPAPRAGGTMKSAEEEHYGYASSNVSPALPLPTAHSTLPAPCHNLQTSTPGIIPPADHPSGYGAALDGGPAGYFLSSGHTRPDGAPALESPRIEITSCLGLYHNNNQFFHDVEVEDVLPSSKRSPSTATLSLPSLEAYRDPSCLSPASSLSSRSCNSEASSYESNYSYPYASPQTSPWQSPCVSPKTTDPEEGFPRGLGACTLLGSPRHSPSTSPRASVTEESWLGARSSRPASPCNKRKYSLNGRQPPYSPHHSPTPSPHGSPRVSVTDDSWLGNTTQYTSSAIVAAINALTTDSSLDLGDGVPVKSRKTTLEQPPSVALKVEPVGEDLGSPPPPADFAPEDYSSFQHIRKGGFCDQYLAVPQHPYQWAKPKPLSPTSYMSPTLPALDWQLPSHSGPYELRIEVQPKSHHRAHYETEGSRGAVKASAGGHPIVQLHGYLENEPLMLQLFIGTADDRLLRPHAFYQVHRITGKTVSTTSHEAILSNTKVLEIPLLPENSMRAVIDCAGILKLRNSDIELRKGETDIGRKNTRVRLVFRVHVPQPSGRTLSLQVASNPIECSQRSAQELPLVEKQSTDSYPVVGGKKMVLSGHNFLQDSKVIFVEKAPDGHHVWEMEAKTDRDLCKPNSLVVEIPPFRNQRITSPVHVSFYVCNGKRKRSQYQRFTYLPANVPIIKTEPTDDYEPAPTCGPVSQGLSPLPRPYYSQQLAMPPDPSSCLVAGFPPCPQRSTLMPAAPGVSPKLHDLSPAAYTKGVASPGHCHLGLPQPAGEAPAVQDVPRPVATHPGSPGQPPPALLPQQVSAPPSSSCPPGLEHSLCPSSPSPPLPPATQEPTCLQPCSPACPPATGRPQHLPSTVRRDESPTAGPRLLPEVHEDGSPNLAPIPVTVKREPEELDQLYLDDVNEIIRNDLSSTSTHS
As for B1, the binding entry is “binds”.
